This note sets out measurements from publication PMC10776994, “The SDS22:PP1:I3 complex: SDS22 binding to PP1 loosens the active site metal to prime metal exchange” (The Journal of Biological Chemistry, 2023).

Protein sequences, listed by entry. Tags and fused reporters are not part of them. Residues count along the entry.
UniProt P62136, residues 7-300: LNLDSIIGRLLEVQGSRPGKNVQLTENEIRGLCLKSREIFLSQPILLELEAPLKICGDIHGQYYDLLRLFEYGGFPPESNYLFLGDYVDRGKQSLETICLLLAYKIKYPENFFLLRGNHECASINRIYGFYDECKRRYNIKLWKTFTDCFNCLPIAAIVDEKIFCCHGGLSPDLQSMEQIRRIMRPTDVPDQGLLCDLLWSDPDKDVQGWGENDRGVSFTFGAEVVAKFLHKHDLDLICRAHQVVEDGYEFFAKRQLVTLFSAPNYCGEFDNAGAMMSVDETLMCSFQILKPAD

The experiment addresses PP1α_(7-300) (UniProt P62136). The experiment in a line: crystal structure; SDS22_(56-360):PP1α_(7-300):I3_(27-68) (SPI) co-expressed in Expi293F; 3.2 Å, molecular replacement with PDB 6OBN; both purified.

Results are given in words; binding and its absence hold for the method and conditions named. Some results given as binding are weak or reduced against the parent protein; the word gives no strength.

B1: I3_(27-68) (domain or fragment, human, UniProt O60927 27-68, looked up)
chain: SLTIKLRKRKPEKKVEWTSDTVDNEHMGRRSSKCCCIYEKPR
notes: source: E. coli BL21 (DE3), purified (Ni-NTA, TEV, heat 95 °C, SEC); not shown: His6, N-terminal, cleaved; MBP, N-terminal, cleaved
B1: the binding result was “binds”.
